# Laboratory results from article PMC12866826.
# By UniProt entry, the sequences of proteins in these tests, tags left out. Residues count along the entry.
# UniProt O14763, residues 56-440: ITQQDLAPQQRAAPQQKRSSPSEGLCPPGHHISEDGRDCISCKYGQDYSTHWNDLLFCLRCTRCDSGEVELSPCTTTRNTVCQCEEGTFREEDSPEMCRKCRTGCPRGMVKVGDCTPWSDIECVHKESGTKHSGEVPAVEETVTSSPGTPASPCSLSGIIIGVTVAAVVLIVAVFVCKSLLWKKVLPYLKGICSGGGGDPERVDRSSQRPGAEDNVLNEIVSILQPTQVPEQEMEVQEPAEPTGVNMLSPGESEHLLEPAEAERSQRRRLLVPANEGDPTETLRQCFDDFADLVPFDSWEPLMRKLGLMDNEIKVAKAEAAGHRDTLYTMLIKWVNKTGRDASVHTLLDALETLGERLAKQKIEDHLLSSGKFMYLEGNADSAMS
# UniProt Q15545: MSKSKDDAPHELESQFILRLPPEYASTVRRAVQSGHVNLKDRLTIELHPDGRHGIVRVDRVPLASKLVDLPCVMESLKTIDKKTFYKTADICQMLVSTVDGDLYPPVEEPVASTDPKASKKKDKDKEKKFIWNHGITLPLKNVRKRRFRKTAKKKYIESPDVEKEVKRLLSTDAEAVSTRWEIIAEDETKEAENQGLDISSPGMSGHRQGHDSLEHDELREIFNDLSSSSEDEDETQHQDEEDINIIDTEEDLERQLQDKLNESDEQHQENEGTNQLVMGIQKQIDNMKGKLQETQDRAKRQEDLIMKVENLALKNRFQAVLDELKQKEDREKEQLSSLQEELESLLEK
# UniProt Q16594: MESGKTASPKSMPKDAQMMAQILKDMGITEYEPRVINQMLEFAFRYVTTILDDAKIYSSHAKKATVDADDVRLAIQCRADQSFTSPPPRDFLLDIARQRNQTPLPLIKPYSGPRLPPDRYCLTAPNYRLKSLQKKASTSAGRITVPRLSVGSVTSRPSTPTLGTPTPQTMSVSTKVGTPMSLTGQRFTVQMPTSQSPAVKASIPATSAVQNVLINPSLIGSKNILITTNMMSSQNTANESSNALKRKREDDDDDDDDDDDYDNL
# UniProt O00268: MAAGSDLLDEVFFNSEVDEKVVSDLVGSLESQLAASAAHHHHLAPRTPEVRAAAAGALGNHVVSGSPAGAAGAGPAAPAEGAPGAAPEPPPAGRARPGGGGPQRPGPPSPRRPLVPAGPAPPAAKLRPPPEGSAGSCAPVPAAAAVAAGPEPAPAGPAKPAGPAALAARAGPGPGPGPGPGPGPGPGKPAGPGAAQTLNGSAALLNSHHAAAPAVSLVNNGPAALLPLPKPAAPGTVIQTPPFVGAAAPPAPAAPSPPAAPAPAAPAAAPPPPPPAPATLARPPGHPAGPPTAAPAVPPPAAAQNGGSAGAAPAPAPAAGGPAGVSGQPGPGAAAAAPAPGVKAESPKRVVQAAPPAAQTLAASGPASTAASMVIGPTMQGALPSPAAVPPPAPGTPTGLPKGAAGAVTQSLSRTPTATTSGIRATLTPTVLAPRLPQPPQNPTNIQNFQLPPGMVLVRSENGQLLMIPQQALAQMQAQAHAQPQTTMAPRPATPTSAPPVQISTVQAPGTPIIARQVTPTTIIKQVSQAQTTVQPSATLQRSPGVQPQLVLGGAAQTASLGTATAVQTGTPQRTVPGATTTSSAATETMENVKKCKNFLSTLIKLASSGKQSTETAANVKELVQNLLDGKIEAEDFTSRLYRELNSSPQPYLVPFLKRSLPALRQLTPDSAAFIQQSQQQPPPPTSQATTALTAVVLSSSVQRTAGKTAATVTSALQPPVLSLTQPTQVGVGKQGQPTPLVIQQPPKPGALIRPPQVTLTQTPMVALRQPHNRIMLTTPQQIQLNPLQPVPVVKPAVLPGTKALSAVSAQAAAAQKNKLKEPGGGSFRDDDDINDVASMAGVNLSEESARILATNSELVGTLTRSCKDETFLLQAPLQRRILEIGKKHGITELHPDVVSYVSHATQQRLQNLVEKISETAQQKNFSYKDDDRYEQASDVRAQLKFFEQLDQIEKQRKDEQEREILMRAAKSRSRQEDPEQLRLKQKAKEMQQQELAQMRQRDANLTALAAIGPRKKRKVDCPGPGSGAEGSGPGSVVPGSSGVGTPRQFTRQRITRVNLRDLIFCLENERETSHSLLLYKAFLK
# Results are given in words; binding and its absence hold for the method and conditions named. Binding seen in cells or lysates may run through a third protein. Here binding means that the protein was enriched with, or labelled near, the bait; the list need not be complete.
# Biological target: death receptor 5 (DR5) (human (endogenous in CCD 841 CoN)) (UniProt O14763)
# Assay: affinity purification with mass spectrometry; CCD 841 CoN cells lysed in Pierce IP lysis buffer; supernatant immunoprecipitated with anti-DR5 antibody (4 h, 4 °C), then Protein A/G Agarose overnight at 4 °C; precipitate digested for LC-MS/MS
row,Substance,binding
1,TAF7 (from UniProt Q15545 1-349),binds
2,TAF9 (from UniProt Q16594 1-264),binds
3,TBP-related factor 4 (TAF4) (from UniProt O00268 1-1085),binds
